Measurements taken from PubChem BioAssay AID1671190 (National Center for Advancing Translational Sciences (NCATS), 2021).
Where “and” joins values, the source holds several entries; their conditions need not be identical. Equal entries are not always repeated. Among all 580,000 compounds or so, about 6,100 (1.1%) were called active. The shares of active, inactive and inconclusive entries below differ from those in the screen. Calls follow the shape of the dose curve; as a rule, active = well fitted inhibition curve with a large enough effect; inconclusive = small, poorly fitted or top-dose-only effect, or another doubt; inactive = no such curve, though single readings can be large or run the other way. A potency beside an inconclusive call is a rough fit, not a confirmed value.

Chains of the proteins cited; added tags and fusions are not shown. Lines headed by an entry give the natural chain unless they say otherwise; changes in a name come on top.
UniProt P18054: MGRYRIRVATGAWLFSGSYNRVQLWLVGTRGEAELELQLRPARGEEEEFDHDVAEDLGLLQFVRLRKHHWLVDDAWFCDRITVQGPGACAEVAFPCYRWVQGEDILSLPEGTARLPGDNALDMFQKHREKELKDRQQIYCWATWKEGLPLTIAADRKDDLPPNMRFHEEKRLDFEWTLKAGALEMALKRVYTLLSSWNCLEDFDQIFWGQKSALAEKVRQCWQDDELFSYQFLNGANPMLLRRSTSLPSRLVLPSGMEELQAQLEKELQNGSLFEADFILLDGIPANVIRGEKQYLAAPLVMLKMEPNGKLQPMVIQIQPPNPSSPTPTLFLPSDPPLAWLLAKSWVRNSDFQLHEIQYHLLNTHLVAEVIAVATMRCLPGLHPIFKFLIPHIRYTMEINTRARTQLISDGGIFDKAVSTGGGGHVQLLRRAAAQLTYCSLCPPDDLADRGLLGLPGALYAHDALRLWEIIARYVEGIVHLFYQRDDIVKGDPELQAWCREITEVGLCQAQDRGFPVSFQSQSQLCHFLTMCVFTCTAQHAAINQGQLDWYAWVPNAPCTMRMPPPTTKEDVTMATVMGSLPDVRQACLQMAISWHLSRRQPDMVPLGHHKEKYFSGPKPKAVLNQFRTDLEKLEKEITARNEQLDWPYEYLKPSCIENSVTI

What follows are compounds tested against Polyunsaturated fatty acid lipoxygenase ALOX12 (Homo sapiens) (UniProt P18054) (assay: Primary qHTS assay for inhibitors of human arachidonate 12S-lipoxygenase (ALOX12): Round 2). Conditions: purified 12hLO, xylenol orange hydroperoxide absorbance; activity change, negative = inhibition: at 108 µM (top of the series) unless noted.
Procedure, shortened: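 Purified human 12hLO (150 nM final) in 25 mM Hepes, 0.01% Triton X-100, pH 7.0 was preincubated 15 min at room temperature with compound. Then 40 uM arachidonic acid was added, 30 min. Hydroperoxide was read by Fe-XO absorbance ratio 573/405 nm.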
% is scaled to controls: 0 for no effect and ±100 for the full control effect; potency is read from the fitted curve at half-maximal effect.

Structure (SMILES)	Potency	activity change, negative = inhibition
CCCCn1nnnc1C(c1ccccc1)N1CCc2ccccc2C1 (stereo not drawn)	inconclusive: 100 µM [inhibitor, single point]	
O=C(Nc1ccc(F)cc1)c1ccc(CN2CC(=O)N3CCCCC3C2=O)cc1 (stereo not drawn)		inactive: -29.2%
O=C(CSc1oc(-c2ccco2)nc1S(=O)(=O)c1ccc(F)cc1)NCC1CCCO1 (stereo not drawn)	inconclusive: 35.5 µM [inhibitor, partial curve]	
C/C=C/COC(=O)c1[nH]c2c(c1C)C(=O)CC(c1ccco1)C2 (stereo not drawn)	inconclusive: 17.8 µM [inhibitor, full curve, poor fit]	
CCCCCCN(C(=O)CCCCCN1C(=O)NC(c2ccc(Cl)cc2)C(C(=O)OCc2ccccc2)=C1C)C(C(=O)NCCCC)c1ccc(OCC(=O)OC)c(C(=O)OC)c1 (stereo not drawn)	inconclusive: 7.94 µM [inhibitor, full curve, poor fit]	
Cc1ccc(C2(C(=O)N3C[C@@H](CN4CCCCC4)[C@@H](CO)C3)CC2)cc1		inactive: -8.28%
CC(C)CCN1CCc2c(n(Cc3cccnc3)n(-c3ccccc3)c2=O)C1	inconclusive: 31.6 µM [inhibitor, full curve, poor fit]	
NC(=O)CSc1nc2cc3c(cc2c(=O)n1CCCCCC(=O)NCc1ccc2c(c1)OCO2)OCO3	inconclusive: 89.1 µM [inhibitor, partial curve, poor fit]	
COc1ccc(OC)c(NC(=O)CSc2c3c(nc4cc(Cl)ccc24)CCCC3)c1		inactive: 2.15%
CCN(CC(=O)NCc1ccc(F)cc1)C(=O)c1ccc(Cl)cc1		inactive: 31.8%
Fc1cccc(-n2c(SCc3nc4ccccc4o3)nnc2N2CCOCC2)c1		inactive: -2.44%
O=C(Nc1ccccc1C(F)(F)F)C1(S(=O)(=O)c2ccc(Cl)cc2)CC1	inconclusive: 141 µM [inhibitor, partial curve, poor fit]	
O=C(c1ccco1)N1CCN(C(=O)c2ccc(-c3cccc(C(F)(F)F)c3)o2)CC1	inconclusive: 3.55 µM [inhibitor, full curve, poor fit]	
O=C(NC[C@H]1O[C@@H](CC(=O)N2CCN(c3ccc(F)cc3)CC2)[C@H](O)[C@@H]1O)c1ccco1	inconclusive: 79.4 µM [inhibitor, partial curve, poor fit]	
COc1ccccc1CNC(=O)[C@@H](NC(=O)C1CCN(C(=O)[C@@H]2CCCN2)CC1)C(C)C	inconclusive: 3.16 µM [inhibitor, full curve, poor fit]	
COc1ccc(NC(=O)N(Cc2cc3cc(C)ccc3[nH]c2=O)CC2CCCO2)cc1 (stereo not drawn)	inconclusive: 22.4 µM [inhibitor, full curve, poor fit]	
COc1ccc(NC(=S)NC(=O)/C=C/c2ccco2)cc1	inconclusive: 35.5 µM [inhibitor, partial curve]	
COc1cccc(C2C(C(=O)c3cccs3)=C(O)C(=O)N2CCN2CCOCC2)c1OC (stereo not drawn)	inconclusive: 28.2 µM [inhibitor, partial curve, poor fit]	
Cc1cccc(-c2nc(C)c(CCNC(=O)C(=O)Nc3ccc(C)c(F)c3)s2)c1	inconclusive: 28.2 µM [inhibitor, partial curve, poor fit]	
Cc1ccc(C(C)NC(=O)Nc2cccc(Cl)c2)c(C)c1 (stereo not drawn)		inactive: 17.9%
CCN(CC)c1ccc(/C=N/NC(=S)NC)c(O)c1	inconclusive: 39.8 µM [inhibitor, partial curve, poor fit]	

Not a retest: an excerpt of the list.
Structure (SMILES)	Potency	activity change, negative = inhibition
CCN(CC(=O)NCc1ccc(F)cc1)C(=O)c1ccc(Cl)cc1		inactive: 31.8%
Fc1cccc(-n2c(SCc3nc4ccccc4o3)nnc2N2CCOCC2)c1		inactive: -2.44%

Going on with the list.

Structure (SMILES)	Potency	activity change, negative = inhibition
Cc1c(C(C)(C)C)c(C=S)n2ccccc12	inconclusive: 3.98 µM [inhibitor, full curve, poor fit]	
Cc1noc(-c2cn(C3CCN(C(=O)c4ccc(C#N)cc4)CC3)nn2)n1	inconclusive: 12.6 µM [inhibitor, partial curve, poor fit]	
CC1CCCN(C(=O)c2ccc(COc3ccccc3Br)cc2)C1 (stereo not drawn)	inconclusive: 100 µM [inhibitor, single point]	
CCN1C(=O)[C@H]2[C@@H](c3ccc(C(F)(F)F)cc3)N[C@]3(CCCN(Cc4ccco4)C3=O)[C@H]2C1=O	inconclusive: 112 µM [inhibitor, single point]	
O=C1COc2ccc(C(=O)CSc3nnc(Cc4cccs4)n3-c3ccc(Cl)cc3)cc2N1		inactive: -12.9%
Cc1c(Cl)cccc1NC(=O)Nc1nnc(N(C)C2CCCCC2)s1	inconclusive: 126 µM [inhibitor, partial curve, poor fit]	
O=C(NC1CCCCC1)C1CN(C(=O)c2cccc(Br)c2)CC12CCOCC2 (stereo not drawn)		inactive: 10.6%
C=CCC1(Nc2c(CC)cccc2CC)CCCCC1	inconclusive: 3.55 µM [inhibitor, full curve, poor fit]	
CCC(CC)CN(CC(=O)NC(N)=O)CC(=O)OC	inconclusive: 50.1 µM [inhibitor, single point]	
COc1ccc(N2CN(CCCN(C)C)Cn3c2nc(C)c(C)c3=O)cc1	inconclusive: 3.55 µM [inhibitor, full curve, poor fit]	
Fc1ccc(-n2nnc(-c3cccnc3)n2)cc1	inconclusive: 70.8 µM [inhibitor, partial curve, poor fit]	
Cc1cccc2nc(CSc3nc4ccccc4o3)cn12		inactive: 7.89%
O=c1cc2c(c(-c3ccccc3)n1Cc1ccccc1)[C@@H](CCO)NC2	inconclusive: 10 µM [inhibitor, full curve]	
CCN(CC)Cc1ccc(C(=O)O)o1	inconclusive: 10 µM [inhibitor, full curve]	
Fc1ccc(N2CCN(c3ncnc4c3nnn4Cc3ccccc3Cl)CC2)cc1		inactive: 0%
Cc1ccc(SCCCn2cncn2)cc1	inconclusive: 0.562 µM [inhibitor, full curve, poor fit]	
CC1(C(=O)NS(=O)(=O)c2ccc(Br)cc2)CCN1C(=O)c1cccc(F)c1 (stereo not drawn)	inconclusive: 11.2 µM [inhibitor, full curve]	
O=C1CN(Cc2cccs2)CCN1c1ccc(Cl)nn1	inconclusive: 35.5 µM [inhibitor, partial curve, poor fit]	
CN(C)c1cccc2c1c(NC(=O)c1ccc(F)cc1)nn2C	inconclusive: 1 µM [inhibitor, full curve, poor fit]	
Cc1ccccc1-c1nc(CNS(=O)(=O)c2ccc(Cl)cc2)c(C)o1	inconclusive: 44.7 µM [inhibitor, partial curve, poor fit]	
COc1ccc(CCC(=O)N2CCC3(CC2)NC(=O)N(c2cccc(F)c2)N3)cc1	active: 5.01 µM	

Structure (SMILES)	Potency	activity change, negative = inhibition
CCOC(=O)C1=C(N)OC2=C(C(=O)CCC2)C1c1ccc2c(c1)OCO2 (stereo not drawn)	inconclusive: 141 µM [inhibitor, single point]	
O=C(NNC(=O)c1ccccc1O)c1cc2ccccc2o1	inconclusive: 44.7 µM [inhibitor, partial curve, poor fit]	
Cc1cccc(OCc2ccc(C(=O)N3CCOCC3)o2)c1		inactive: 1.77%
CN1CCN(C(CNS(=O)(=O)c2ccc([N+](=O)[O-])cc2)c2ccc(F)cc2)CC1 (stereo not drawn)	inconclusive: 3.55 µM [inhibitor, full curve, poor fit]	
O=C1CCc2cc(S(=O)(=O)NCCC(=O)N3CCN(c4cccc(Cl)c4)CC3)ccc2N1		inactive: -10.1%
O=C(CN1CCC(n2nnc3cc(C(F)(F)F)ccc32)CC1)Nc1ccc2c(c1)CCC2		inactive: 126%
Cc1ccc(S(=O)(=O)NC(=O)NN2CCCCCC2)cc1	inconclusive: 7.08 µM [inhibitor, full curve, poor fit] and inconclusive: 44.7 µM [inhibitor, partial curve, poor fit]	
CCn1c(N)c(C(=O)NC)sc1=S	inconclusive: 2.24 µM [inhibitor, full curve, poor fit]	
Cc1ccc(CN(C)C(=O)c2sc3nc(C(C)(C)C)nc(C)c3c2C)o1	inconclusive: 50.1 µM [inhibitor, partial curve, poor fit]	
COc1cccc(NC(=O)Cn2c(CCC(=O)O)ccc2-c2ccc(C)cc2)c1		inactive: -3.71%
CCN(CC)Cc1ccc(CNC(=O)C2CCN(c3nc4ccccc4o3)CC2)cc1	inconclusive: 141 µM [inhibitor, single point]	
COc1ccc(Nc2c(-c3ccc(C)cc3)nc3cnccn23)cc1	inconclusive: 44.7 µM [inhibitor, partial curve, poor fit]	
C[C@H](CO)N1C[C@H](C)[C@H](CN(C)C(=O)Nc2ccc(N3CCN(C)CC3)cc2)OCc2cnnn2CCCC1=O	inconclusive: 39.8 µM [inhibitor, single point]	
CC(=O)Nc1ccc2c(COC(=O)[C@@H](NS(=O)(=O)c3ccc(C)cc3)C(C)C)cc(=O)oc2c1		inactive: -2.51%
COCCNC(=S)N(CCc1c(C)[nH]c2ccc(C)cc12)Cc1ccco1		inactive: 66.9%
CNC(C)C#Cc1ccc2c(=O)c3ccccc3oc2c1 (stereo not drawn)	inconclusive: 0.112 µM [inhibitor, full curve, poor fit]	
C=C(C)C(=O)Nc1cccc(C2=NOC3(C2)C[C@@H](C(N)=O)N(C(=O)[C@H]2CCC(=O)N2)C3)c1 (stereo partly drawn)	inconclusive: 39.8 µM [inhibitor, partial curve, poor fit]	
Cc1ccc(Nc2nnns2)cc1	inconclusive: 63.1 µM [inhibitor, partial curve, poor fit]	
Cc1cccc(-c2ccc(CN)cc2)c1		inactive: 81.3% [at 176 µM]
Cc1noc(/C=C\c2ccc(S(=O)(=O)N3CCCCC3C)cc2)c1NC(=O)C1CC1 (stereo not drawn)		inactive: -11.5%
Cc1ccc(CNC(=O)c2c[nH]c3ccc(S(=O)(=O)N4CCOCC4)cc3c2=O)cc1	inconclusive: 35.5 µM [inhibitor, partial curve, poor fit]	
